Test results taken from the supplement of paper PMC10849652.
Some of the results follow.

Chains of the proteins cited; added tags and fusions are not shown. Lines headed by an entry give the natural chain unless they say otherwise; changes in a name come on top.
UniProt Q9BXS5: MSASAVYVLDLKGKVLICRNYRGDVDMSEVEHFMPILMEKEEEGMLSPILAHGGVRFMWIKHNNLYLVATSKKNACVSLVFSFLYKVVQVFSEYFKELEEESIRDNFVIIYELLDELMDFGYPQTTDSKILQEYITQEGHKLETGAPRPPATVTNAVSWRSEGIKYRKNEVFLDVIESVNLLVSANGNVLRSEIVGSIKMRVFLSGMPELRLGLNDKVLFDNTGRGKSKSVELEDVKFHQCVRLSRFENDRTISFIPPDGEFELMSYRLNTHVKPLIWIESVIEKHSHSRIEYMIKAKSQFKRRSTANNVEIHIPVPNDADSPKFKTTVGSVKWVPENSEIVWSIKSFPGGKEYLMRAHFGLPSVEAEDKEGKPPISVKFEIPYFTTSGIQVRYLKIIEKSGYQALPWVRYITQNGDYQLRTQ
UniProt Q9NW15: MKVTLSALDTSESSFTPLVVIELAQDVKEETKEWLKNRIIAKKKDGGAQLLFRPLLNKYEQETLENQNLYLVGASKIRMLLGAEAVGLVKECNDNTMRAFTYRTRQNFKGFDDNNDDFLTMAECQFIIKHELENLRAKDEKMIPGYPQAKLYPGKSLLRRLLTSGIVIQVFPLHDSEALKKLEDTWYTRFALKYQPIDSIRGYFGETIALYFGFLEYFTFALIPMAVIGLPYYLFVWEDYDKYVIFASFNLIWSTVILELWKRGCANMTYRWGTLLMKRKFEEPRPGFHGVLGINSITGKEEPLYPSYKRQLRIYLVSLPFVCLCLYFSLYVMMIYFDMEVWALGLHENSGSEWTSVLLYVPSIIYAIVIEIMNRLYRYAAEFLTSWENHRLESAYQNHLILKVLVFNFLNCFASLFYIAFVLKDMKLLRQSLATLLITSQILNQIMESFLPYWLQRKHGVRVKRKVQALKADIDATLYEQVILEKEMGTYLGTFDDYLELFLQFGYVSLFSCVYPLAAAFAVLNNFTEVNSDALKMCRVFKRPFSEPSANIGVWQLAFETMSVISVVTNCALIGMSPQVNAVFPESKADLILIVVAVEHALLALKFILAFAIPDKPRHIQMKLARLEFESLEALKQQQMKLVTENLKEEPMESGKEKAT
UniProt Q4KMQ2: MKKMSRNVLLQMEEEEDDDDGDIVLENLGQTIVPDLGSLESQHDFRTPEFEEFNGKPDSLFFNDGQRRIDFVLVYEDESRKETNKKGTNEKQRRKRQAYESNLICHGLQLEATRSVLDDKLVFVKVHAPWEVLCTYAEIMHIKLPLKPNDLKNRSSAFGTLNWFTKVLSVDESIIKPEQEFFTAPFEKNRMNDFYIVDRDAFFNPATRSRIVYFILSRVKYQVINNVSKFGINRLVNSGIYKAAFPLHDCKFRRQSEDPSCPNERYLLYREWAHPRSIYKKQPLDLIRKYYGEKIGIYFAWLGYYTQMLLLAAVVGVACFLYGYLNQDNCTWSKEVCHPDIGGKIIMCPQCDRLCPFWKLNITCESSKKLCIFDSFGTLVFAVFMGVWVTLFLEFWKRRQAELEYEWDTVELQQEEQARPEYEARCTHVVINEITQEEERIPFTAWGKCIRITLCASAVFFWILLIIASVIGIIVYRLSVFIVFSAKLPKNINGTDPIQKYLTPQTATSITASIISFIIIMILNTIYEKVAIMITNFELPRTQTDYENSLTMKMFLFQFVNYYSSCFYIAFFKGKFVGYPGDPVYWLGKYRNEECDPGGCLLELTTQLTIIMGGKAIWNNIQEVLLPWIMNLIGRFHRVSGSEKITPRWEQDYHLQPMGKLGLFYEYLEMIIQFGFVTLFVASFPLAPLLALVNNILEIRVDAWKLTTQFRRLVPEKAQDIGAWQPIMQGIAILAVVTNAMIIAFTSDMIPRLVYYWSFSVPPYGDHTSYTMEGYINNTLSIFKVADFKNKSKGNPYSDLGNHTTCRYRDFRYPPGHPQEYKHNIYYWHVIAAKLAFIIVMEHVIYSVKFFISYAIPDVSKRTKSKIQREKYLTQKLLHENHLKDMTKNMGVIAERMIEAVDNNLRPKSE
UniProt P84085: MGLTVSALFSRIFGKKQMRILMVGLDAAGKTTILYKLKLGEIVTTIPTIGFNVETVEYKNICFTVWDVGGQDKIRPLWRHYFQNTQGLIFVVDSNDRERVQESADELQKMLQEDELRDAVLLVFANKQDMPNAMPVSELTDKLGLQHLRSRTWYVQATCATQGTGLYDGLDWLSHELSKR
UniProt Q9Y6D6: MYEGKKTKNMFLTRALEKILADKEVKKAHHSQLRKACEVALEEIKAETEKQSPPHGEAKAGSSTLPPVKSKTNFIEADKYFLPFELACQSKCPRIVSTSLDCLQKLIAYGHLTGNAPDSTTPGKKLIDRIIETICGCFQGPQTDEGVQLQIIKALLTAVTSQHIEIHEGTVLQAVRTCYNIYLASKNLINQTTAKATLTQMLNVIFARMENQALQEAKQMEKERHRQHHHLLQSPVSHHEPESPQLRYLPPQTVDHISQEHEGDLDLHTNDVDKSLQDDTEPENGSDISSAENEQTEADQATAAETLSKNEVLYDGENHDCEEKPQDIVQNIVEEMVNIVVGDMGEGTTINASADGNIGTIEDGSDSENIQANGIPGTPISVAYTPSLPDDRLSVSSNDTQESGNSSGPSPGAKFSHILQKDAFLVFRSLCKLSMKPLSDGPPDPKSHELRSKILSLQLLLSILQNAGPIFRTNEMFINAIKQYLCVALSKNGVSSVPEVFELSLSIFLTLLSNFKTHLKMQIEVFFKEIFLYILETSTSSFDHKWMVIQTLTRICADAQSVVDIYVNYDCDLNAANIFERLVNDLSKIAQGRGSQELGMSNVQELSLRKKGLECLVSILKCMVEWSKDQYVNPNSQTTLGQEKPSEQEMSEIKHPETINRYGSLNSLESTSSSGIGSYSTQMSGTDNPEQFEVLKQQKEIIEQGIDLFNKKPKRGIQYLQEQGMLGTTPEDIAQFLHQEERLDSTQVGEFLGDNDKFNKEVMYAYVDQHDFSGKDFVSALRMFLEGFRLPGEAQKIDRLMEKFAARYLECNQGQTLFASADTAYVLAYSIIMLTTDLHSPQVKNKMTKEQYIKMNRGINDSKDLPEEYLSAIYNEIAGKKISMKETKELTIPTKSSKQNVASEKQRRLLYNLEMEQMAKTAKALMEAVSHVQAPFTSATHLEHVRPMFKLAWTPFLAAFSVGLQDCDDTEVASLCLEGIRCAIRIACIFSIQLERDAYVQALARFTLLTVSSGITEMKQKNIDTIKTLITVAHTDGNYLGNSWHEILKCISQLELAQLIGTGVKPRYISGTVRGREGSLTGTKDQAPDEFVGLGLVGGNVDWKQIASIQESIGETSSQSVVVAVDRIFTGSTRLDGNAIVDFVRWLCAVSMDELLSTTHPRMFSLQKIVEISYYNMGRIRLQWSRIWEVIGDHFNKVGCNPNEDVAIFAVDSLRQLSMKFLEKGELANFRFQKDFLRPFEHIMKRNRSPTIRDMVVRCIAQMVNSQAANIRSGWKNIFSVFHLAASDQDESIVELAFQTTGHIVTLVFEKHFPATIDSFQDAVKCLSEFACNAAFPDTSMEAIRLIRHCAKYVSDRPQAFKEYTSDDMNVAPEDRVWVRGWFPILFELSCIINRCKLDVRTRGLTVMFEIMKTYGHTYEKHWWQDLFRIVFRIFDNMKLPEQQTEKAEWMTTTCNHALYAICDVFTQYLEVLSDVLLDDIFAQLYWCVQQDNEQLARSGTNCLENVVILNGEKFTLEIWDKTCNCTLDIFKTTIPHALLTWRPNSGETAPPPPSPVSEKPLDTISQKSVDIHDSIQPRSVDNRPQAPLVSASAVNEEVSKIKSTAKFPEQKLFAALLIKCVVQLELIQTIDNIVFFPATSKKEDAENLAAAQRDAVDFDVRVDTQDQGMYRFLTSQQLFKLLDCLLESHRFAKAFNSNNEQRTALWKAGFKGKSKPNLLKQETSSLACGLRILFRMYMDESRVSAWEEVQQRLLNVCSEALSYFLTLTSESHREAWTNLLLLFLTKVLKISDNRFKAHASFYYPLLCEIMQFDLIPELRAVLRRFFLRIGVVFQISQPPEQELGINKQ
UniProt P02654: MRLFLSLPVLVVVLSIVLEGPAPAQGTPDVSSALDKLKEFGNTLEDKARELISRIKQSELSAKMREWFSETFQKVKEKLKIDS
UniProt P02749: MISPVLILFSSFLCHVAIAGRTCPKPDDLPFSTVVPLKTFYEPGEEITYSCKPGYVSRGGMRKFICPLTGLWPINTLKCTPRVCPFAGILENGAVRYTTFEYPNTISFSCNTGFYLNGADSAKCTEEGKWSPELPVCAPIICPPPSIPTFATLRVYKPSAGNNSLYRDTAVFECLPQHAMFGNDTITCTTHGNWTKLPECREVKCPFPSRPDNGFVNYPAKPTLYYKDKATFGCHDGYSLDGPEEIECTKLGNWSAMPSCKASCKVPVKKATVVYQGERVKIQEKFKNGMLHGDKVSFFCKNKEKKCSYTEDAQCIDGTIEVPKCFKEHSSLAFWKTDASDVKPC
UniProt Q8IZ07: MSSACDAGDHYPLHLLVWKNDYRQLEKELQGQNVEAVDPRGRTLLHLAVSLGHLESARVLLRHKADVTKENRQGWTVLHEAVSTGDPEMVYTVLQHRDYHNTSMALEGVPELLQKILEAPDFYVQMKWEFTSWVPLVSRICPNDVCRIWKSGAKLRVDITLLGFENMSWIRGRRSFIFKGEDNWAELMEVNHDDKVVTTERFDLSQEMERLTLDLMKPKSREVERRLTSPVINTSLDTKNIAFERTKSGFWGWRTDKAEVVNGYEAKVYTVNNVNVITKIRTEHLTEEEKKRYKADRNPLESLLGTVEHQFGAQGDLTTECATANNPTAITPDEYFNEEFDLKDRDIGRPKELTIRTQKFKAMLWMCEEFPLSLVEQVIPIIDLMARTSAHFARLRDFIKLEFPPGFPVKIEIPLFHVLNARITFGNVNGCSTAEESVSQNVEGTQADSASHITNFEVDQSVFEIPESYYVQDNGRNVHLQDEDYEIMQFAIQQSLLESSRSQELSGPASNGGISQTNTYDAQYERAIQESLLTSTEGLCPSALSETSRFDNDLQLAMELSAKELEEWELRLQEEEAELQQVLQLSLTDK
UniProt O14791: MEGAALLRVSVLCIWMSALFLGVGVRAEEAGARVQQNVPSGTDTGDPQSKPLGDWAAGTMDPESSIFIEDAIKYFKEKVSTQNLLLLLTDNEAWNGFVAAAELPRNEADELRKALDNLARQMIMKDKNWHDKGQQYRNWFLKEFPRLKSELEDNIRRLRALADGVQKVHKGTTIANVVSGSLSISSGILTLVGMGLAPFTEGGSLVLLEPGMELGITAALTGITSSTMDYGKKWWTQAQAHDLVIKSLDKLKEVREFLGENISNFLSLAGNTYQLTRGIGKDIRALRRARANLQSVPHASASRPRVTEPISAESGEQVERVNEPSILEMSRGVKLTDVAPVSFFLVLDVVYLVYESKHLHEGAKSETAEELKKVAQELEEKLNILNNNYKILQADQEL
UniProt Q0VD83: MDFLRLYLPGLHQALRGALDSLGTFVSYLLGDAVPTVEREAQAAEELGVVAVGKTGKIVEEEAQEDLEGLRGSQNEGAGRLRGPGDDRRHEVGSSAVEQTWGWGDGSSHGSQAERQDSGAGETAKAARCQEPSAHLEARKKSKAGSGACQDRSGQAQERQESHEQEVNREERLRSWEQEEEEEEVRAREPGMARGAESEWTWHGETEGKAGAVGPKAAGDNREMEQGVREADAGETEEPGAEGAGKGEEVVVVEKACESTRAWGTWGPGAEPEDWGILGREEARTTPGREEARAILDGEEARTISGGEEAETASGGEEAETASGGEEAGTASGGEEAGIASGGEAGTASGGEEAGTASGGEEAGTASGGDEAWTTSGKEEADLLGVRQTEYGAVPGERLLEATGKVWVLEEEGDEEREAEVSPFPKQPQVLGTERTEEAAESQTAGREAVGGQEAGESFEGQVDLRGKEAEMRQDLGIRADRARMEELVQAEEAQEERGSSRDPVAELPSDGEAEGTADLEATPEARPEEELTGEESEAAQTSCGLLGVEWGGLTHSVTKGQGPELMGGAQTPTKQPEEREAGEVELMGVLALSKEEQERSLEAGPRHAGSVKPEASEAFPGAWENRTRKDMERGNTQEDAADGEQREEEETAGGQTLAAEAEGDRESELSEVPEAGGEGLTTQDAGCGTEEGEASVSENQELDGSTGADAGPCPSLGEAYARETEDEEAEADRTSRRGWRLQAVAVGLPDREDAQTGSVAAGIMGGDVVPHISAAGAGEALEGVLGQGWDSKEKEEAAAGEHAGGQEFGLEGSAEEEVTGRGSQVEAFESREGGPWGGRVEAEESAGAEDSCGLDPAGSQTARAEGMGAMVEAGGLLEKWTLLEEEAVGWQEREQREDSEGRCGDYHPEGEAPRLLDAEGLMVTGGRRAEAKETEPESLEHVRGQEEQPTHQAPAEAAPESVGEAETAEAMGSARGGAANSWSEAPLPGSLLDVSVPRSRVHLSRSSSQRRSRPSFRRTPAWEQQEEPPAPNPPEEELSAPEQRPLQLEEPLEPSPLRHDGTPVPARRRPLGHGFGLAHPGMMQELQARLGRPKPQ

The targets below were run with C1=CC=C(C=C1)[C@H](COC2=CC3=C(C=C2)NC(=O)N3)NC(=O)C4=CC=CN(C4=O)CC5=CC(=C(C=C5)F)F (assay: log2 fold change, soluble protein after heating vs DMSO (PISA); higher = thermal stabilisation; K562 cells, 10 uM, 30 min; active = over 0.2 and 3.5 SD of the protein, either way, in both replicates (recomputed)).
In short: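 K562 cells at 2×10^6 cells/mL were exposed to 10 μM compound for 30 min, then aliquots were heated for 3 min across 48°C-58°C, pooled, and extracted in PBS containing 0.5% NP-40 at 4°C. The supernatant after 21,000xg for 90 min was taken as soluble protein and measured by TMTpro 16plex LC-MS/MS with channel sums equalised. Thermal stability is reported relative to control samples, with values from duplicates. Fold changes are given on a log2 scale.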

Row | Target | log2 fold change
1 | AP4E1 (UniProt Q9UPM8) | inactive: -0.258
2 | ANXA7 (UniProt P20073) | inactive: -0.026
3 | AP1M1 (UniProt Q9BXS5) | inactive: -0.013
4 | AP2A2 isoform 2 (UniProt O94973) | inactive: -0.021
5 | ARAF (UniProt P10398) | inactive: -0.05
6 | ANO10 (UniProt Q9NW15) | inactive: 0.025
7 | ARFGAP1 (UniProt Q8N6T3) | inactive: 0.033
8 | ANTKMT (UniProt Q9BQD7) | inactive: -0.032
9 | AP5M1 (UniProt Q9H0R1) | inactive: 0.038
10 | AP2M1 (UniProt C9JTK4) | inactive: -0.113
11 | ARHGAP17 (UniProt Q68EM7) | inactive: -0.061
12 | ANTXR2 isoform 4 (UniProt P58335) | inactive: 0.056
13 | API5 isoform 2 (UniProt Q9BZZ5) | inactive: 0.011
14 | ANO6 isoform 2 (UniProt Q4KMQ2) | inactive: -0.015
15 | AP1B1 (UniProt Q10567) | inactive: -0.004
16 | ANXA5 (UniProt P08758) | inactive: -0.036
17 | ARF5 (UniProt P84085) | inactive: 0.003
18 | ARFGEF1 (UniProt Q9Y6D6) | inactive: -0.012
19 | APOC1 (UniProt P02654) | inactive: -0.007

Row | Target | log2 fold change
20 | AP1S1 (UniProt P61966) | inactive: -0.007
21 | ANP32B (UniProt Q92688) | inactive: -0.039
22 | APOH (UniProt P02749) | inactive: -0.265
23 | ANXA2 isoform 2 (UniProt P07355) | inactive: -0.047
24 | AP3D1 isoform 5 (UniProt O14617) | inactive: -0.05
25 | AP4S1 (UniProt Q9Y587) | inactive: -0.077
26 | ANKRD13A (UniProt Q8IZ07) | inactive: -0.039
27 | APOL1 isoform 2 (UniProt O14791) | inactive: -0.05
28 | APEH (UniProt P13798) | inactive: 0.018
29 | ARFIP2 (UniProt P53365) | inactive: -0.204
30 | ANXA4 (UniProt P09525) | inactive: 0.04
31 | ARF1 (UniProt P84077) | inactive: 0.131
32 | APC (UniProt P25054) | inactive: 0.07
33 | APPBP2 (UniProt Q92624) | inactive: -0.035
34 | APOL2 (UniProt J3KQL8) | inactive: -0.212
35 | ARFIP1 (UniProt P53367) | inactive: 0.04
36 | ANKZF1 (UniProt Q9H8Y5) | inactive: -0.113
37 | APOO (UniProt Q9BUR5) | inactive: 0.023
38 | APOBR (UniProt Q0VD83) | inactive: 0.036

Two entries from above, tab-delimited.
Row	Target	log2 fold change
20	AP1S1 (UniProt P61966)	inactive: -0.007
21	ANP32B (UniProt Q92688)	inactive: -0.039
